Reference: publication doi:10.1101/2024.06.26.599170
Results are given in words; binding and its absence hold for the method and conditions named. For part of these data: Binding seen in cells or lysates may run through a third protein. Some results given as binding are weak or reduced against the parent protein; the word gives no strength. Tags and fused reporters may be left off the sequences shown.

Legend:
[1] = biological target: T1, HA-IAA9^P188S (Arabidopsis thaliana) (UniProt Q38827); experiment: co-IP
T1 sequence: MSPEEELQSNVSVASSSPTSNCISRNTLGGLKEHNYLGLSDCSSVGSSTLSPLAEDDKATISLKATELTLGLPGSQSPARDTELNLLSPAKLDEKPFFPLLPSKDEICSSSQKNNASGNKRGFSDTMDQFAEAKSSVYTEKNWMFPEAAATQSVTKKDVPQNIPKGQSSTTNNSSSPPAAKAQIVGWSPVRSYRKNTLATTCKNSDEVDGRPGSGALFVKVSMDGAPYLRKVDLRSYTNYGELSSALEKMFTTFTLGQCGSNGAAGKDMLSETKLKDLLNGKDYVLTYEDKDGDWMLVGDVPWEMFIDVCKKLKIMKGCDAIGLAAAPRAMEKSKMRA

[2] = biological target: T2, FLAG-ARF6 (AUXIN RESPONSE FACTOR6), transiently expressed in N. benthamiana (Arabidopsis thaliana) (UniProt Q9ZTX8); experiment: co-IP
T2 sequence: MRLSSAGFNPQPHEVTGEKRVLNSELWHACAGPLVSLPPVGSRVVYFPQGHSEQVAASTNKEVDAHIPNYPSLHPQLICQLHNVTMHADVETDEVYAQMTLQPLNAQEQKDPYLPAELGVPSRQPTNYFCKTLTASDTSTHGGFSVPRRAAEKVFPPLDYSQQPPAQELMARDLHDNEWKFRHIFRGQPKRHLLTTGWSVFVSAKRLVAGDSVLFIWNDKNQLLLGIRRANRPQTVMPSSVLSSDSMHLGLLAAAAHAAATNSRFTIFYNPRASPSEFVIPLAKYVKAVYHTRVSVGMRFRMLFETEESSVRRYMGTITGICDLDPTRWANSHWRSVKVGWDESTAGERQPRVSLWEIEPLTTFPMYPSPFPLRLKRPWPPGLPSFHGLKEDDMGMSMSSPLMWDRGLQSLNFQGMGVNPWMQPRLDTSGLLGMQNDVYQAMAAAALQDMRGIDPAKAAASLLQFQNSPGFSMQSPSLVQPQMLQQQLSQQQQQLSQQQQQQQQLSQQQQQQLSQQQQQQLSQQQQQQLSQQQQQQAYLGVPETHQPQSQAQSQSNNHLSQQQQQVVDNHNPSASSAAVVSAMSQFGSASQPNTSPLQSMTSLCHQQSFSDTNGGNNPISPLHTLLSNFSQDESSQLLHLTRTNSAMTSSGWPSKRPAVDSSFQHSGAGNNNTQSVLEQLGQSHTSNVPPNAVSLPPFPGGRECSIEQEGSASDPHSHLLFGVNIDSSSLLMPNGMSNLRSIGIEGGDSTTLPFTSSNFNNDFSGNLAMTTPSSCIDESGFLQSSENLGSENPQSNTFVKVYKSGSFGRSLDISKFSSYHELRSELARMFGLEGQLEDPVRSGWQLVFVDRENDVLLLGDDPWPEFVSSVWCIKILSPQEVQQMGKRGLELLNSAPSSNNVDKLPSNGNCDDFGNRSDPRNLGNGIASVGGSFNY

[3] = biological target: T3, MED25, yeast two-hybrid fusion (Arabidopsis thaliana) (UniProt Q7XYY2); experiment: two-hybrid
T3 sequence: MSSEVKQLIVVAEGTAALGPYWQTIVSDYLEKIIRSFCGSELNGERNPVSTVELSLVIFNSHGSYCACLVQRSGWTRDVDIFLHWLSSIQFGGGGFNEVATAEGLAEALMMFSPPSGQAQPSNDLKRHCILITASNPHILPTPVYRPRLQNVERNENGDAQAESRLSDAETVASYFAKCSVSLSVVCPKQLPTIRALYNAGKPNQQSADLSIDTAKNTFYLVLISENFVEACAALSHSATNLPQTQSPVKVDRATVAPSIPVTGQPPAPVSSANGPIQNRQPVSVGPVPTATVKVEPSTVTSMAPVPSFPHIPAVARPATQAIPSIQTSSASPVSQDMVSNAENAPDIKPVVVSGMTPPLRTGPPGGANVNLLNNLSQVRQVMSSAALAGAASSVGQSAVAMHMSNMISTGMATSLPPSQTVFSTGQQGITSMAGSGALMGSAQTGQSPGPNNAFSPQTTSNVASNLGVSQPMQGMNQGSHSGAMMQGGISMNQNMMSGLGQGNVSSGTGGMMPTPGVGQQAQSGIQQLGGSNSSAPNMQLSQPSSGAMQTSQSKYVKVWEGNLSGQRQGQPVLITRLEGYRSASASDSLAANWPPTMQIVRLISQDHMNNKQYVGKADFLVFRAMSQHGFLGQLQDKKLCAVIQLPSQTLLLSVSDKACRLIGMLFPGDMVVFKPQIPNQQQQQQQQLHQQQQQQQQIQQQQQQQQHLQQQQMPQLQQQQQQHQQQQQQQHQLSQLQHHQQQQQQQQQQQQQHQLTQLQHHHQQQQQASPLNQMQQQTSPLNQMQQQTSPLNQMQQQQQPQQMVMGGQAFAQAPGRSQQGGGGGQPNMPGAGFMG

[4] = biological target: T4, MED8, yeast two-hybrid fusion (Arabidopsis thaliana) (UniProt Q4V3C1); experiment: two-hybrid
T4 sequence: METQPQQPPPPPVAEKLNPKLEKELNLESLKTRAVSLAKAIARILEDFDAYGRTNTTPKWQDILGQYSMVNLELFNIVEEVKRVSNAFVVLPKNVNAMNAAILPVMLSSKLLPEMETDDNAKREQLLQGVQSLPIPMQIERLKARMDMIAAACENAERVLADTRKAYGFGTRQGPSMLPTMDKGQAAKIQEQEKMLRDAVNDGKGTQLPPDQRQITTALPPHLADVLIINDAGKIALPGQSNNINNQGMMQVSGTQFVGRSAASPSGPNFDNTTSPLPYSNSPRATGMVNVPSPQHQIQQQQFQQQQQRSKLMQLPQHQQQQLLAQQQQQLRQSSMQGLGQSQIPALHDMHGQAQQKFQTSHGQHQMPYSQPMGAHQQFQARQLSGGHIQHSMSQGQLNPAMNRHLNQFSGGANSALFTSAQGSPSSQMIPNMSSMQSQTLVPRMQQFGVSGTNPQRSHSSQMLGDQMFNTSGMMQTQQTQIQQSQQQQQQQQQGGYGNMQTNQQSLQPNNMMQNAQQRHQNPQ

B1: Myc-SPY (SPINDLY) (enzyme, UniProt Q96301 1-914)
chain: MVGLEDDTERERSPVVENGFSNGSRSSSSSAGVLSPSRKVTQGNDTLSYANILRARNKFADALALYEAMLEKDSKNVEAHIGKGICLQTQNKGNLAFDCFSEAIRLDPHNACALTHCGILHKEEGRLVEAAESYQKALMADASYKPAAECLAIVLTDLGTSLKLAGNTQEGIQKYYEALKIDPHYAPAYYNLGVVYSEMMQYDNALSCYEKAALERPMYAEAYCNMGVIYKNRGDLEMAITCYERCLAVSPNFEIAKNNMAIALTDLGTKVKLEGDVTQGVAYYKKALYYNWHYADAMYNLGVAYGEMLKFDMAIVFYELAFHFNPHCAEACNNLGVLYKDRDNLDKAVECYQMALSIKPNFAQSLNNLGVVYTVQGKMDAAASMIEKAILANPTYAEAFNNLGVLYRDAGNITMAIDAYEECLKIDPDSRNAGQNRLLAMNYINEGLDDKLFEAHRDWGWRFTRLHPQYTSWDNLKDPERPITIGYISPDFFTHSVSYFIEAPLTHHDYTKYKVVVYSAVVKADAKTYRFRDKVLKKGGVWKDIYGIDEKKIASMVREDKIDILVELTGHTANNKLGTMACRPAPVQVTWIGYPNTTGLPTVDYRITDSLADPPDTKQKQVEELVRLPDCFLCYTPSPEAGPVCPTPALSNGFVTFGSFNNLAKITPKVLQVWARILCAVPNSRLVVKCKPFCCDSIRQRFLTTLEQLGLESKRVDLLPLILFNHDHMQAYSLMDISLDTFPYAGTTTTCESLYMGVPCVTMAGSVHAHNVGVSLLTKVGLGHLVAKNEDEYVQLSVDLASDVTALSKLRMSLRDLMAGSPVCNGPSFAVGLESAYRNMWKKYCKGEVPSLRRMEMLQKEVHDDPLISKDLGPSRVSVTGEATPSLKANGSAPVPSSLPTQSPQLSKRMDSTS
binding [1]: binds

B2: Myc-ARF8 (AUXIN RESPONSE FACTOR8) (protein, UniProt Q9FGV1 1-811)
chain: MKLSTSGLGQQGHEGEKCLNSELWHACAGPLVSLPSSGSRVVYFPQGHSEQVAATTNKEVDGHIPNYPSLPPQLICQLHNVTMHADVETDEVYAQMTLQPLTPEEQKETFVPIELGIPSKQPSNYFCKTLTASDTSTHGGFSVPRRAAEKVFPPLDYTLQPPAQELIARDLHDVEWKFRHIFRGQPKRHLLTTGWSVFVSAKRLVAGDSVIFIRNEKNQLFLGIRHATRPQTIVPSSVLSSDSMHIGLLAAAAHASATNSCFTVFFHPRASQSEFVIQLSKYIKAVFHTRISVGMRFRMLFETEESSVRRYMGTITGISDLDSVRWPNSHWRSVKVGWDESTAGERQPRVSLWEIEPLTTFPMYPSLFPLRLKRPWHAGTSSLPDGRGDLGSGLTWLRGGGGEQQGLLPLNYPSVGLFPWMQQRLDLSQMGTDNNQQYQAMLAAGLQNIGGGDPLRQQFVQLQEPHHQYLQQSASHNSDLMLQQQQQQQASRHLMHAQTQIMSENLPQQNMRQEVSNQPAGQQQQLQQPDQNAYLNAFKMQNGHLQQWQQQSEMPSPSFMKSDFTDSSNKFATTASPASGDGNLLNFSITGQSVLPEQLTTEGWSPKASNTFSEPLSLPQAYPGKSLALEPGNPQNPSLFGVDPDSGLFLPSTVPRFASSSGDAEASPMSLTDSGFQNSLYSCMQDTTHELLHGAGQINSSNQTKNFVKVYKSGSVGRSLDISRFSSYHELREELGKMFAIEGLLEDPLRSGWQLVFVDKENDILLLGDDPWESFVNNVWYIKILSPEDVHQMGDHGEGSGGLFPQNPTHL
binding [2]: binds

B3: ARF6, yeast two-hybrid fusion (protein, UniProt Q9ZTX8 1-935)
chain: T2 sequence
binding [3]: no binding
binding [4]: binds

B4: ARF8, yeast two-hybrid fusion (protein, UniProt Q9FGV1 1-811)
chain: B2 chain
binding [3]: no binding
binding [4]: binds
